Drawing on patent EP4431525A1 (Anaveon AG, dated 2024), this text covers binding for two molecules.

Sequences of proteins named here, by UniProt entry; tags and fusion partners are left off. Residues count along the entry.
UniProt P60568, residues 21-153: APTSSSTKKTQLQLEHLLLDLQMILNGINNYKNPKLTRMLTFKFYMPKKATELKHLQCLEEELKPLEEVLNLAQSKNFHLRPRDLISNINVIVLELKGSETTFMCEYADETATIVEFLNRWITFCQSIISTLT

These are yes or no findings as the source states them, for the method shown. Some results given as binding are weak or reduced against the parent protein; the word gives no strength.

The target of assay [1] is recombinant human IL-2 (human) (UniProt P60568). The assay is described as follows: BLI.
Assay [2] has the same target. The assay can be described thus: ELISA and BLI. (An ELISA detects its analyte on a solid surface through an enzyme-linked reagent.)

B1: Antibody B (antibody, human IgG1, kappa, V domains shown)
VH: QVQLVESGGGVVQPGRSLRLSCAASGYTFSSYLIEWVRQAPGKGLEWVAVINPGSGGTNYADSVKGRFTISADKSKNTAYLQMNSLRAEDTAVYYCARWRGDGYYAYFDVWGQGTTVTVSS
VL: EIVLTQSPATLSVSPGERATLSCRASQSVSYDGDSYMNWYQQKPGQAPRLLIYAASNLASGIPARFSGSGSGTEFTLTISSLQSEDAAVYYCQQSNEDPYTFGGGTKVEIKR
Regarding B1, the binding result in assay [1] is “binds”.

B2: Antibody A (antibody, human IgG1, kappa, N297A, V domains shown)
VH: EVQLVQSGAEVKKPGESLKISCKGSGYAFTNYLIEWVRQMPGKGLEWMGVINPGSGGTNYNEKFKGQVTISADKSISTAYLQWSSLKASDTAMYYCARWRGEGYYAYFDVWGQGTTVTVSS
VL: AIRLTQSPSSFSASTGDRVTITCKASQSVDYQGDSYMNWYQQKPGKAPKLLIYAASNLESGVPSRFSGSGSGTDFTLTISSLQSEDFATYYCQQSNEDPYTFGGGTKVEIKR
As to B2, in assay [2], the binding entry is recorded as “binds”.
